Source: patent publication US20240285634A1, “COMPOUND AND METHOD FOR TREATING CHEMOTHERAPY-ASSOCIATED GASTROINTESTINAL SIDE EFFECTS” (ONQUALITY PHARMACEUTICALS CHINA LTD., priority 2021, published 2024)
Further values from the same series stand in other lists.

System: Chemotherapeutic agent-caused diarrhea models of Balb/c mice
Test: Relieving effect on diarrhea caused by a chemotherapeutic agent (Examples 1-201)
Assay type: in vivo
Text: Construction of mouse animal models: Chemotherapeutic agent-caused diarrhea models of Balb/c mice were constructed according to the administration mode and frequency of the chemotherapeutic agent as shown in Table 3. After administration for several days, mice developed different extents of diarrhea symptoms (as shown in FIG. 1), which were similar to the conditions in human. Thus, chemotherapeutic agent-caused diarrhea models of mice are very good models to mimic diarrhea in human caused by the chemotherapeutic agent.
Balb/c mice were fed for 1 week, and then divided into groups. The experiment was divided into a control group, a chemotherapeutic agent group, and a group of the compound as shown in Formula I, each of which comprised 10 mice, to perform the administration experiment, for which the administration dosage, mode, time and frequency were shown in Table 3. The control group: being injected or intragastrically administered with the same solvent as that used in the group of the compound as shown in Formula I (the injection mode and time were shown in Table 3), and then being injected or intragastrically administered with the same solvent as that used in the chemotherapeutic agent group (the administration mode was shown in Table 3); the chemotherapeutic agent group: being injected or intragastrically administered with the same solvent as that used in the group of the compound as shown in Formula I (the administration mode and time were shown in Table 3), and then being injected or intragastrically administered with the chemotherapeutic agent (the type, administration mode and dosage were shown in Table 3); the group of the compound as shown in Formula I: being injected or intragastrically administered with the compound as shown in Formula I (the administration mode and time were shown in Table 3), and then being administered with the chemotherapeutic agent (the administration mode and dosage were shown in Table 3).
The scoring of diarrhea can refer to the method of Akinobu Kurita (Cancer Chemother Pharmacol 2000; 46:211-20.), Grade 0: normal feces; Grade 1: mild diarrhea, the stools is slightly wet and soft; Grade 2: moderate diarrhea, loose stools and mild perianal contamination; Grade 3: severe diarrhea, watery stools and accompanied by severe perianal staining (see FIG. 1). It is regarded as effective remission when the diarrhea grading of mice in the group of the compound as shown in Formula I is reduced compared with the average diarrhea grading of mice in the chemotherapeutic agent group.
The diarrhea grading of mice was observed and recorded every day. At the end of the experiment, the number of mice in the group of the compound as shown in Formula I whose diarrhea grading was lower than that of mice in the chemotherapeutic agent group was recorded. Table 3 lists various animal experiment combinations of chemotherapeutic agents and the compound as shown in Formula I, as well as the corresponding experimental results. (Relative remission rate %=the number of mice in the group of the compound as shown in Formula I whose diarrhea has been effectively relieved/the total number of mice in the group of the compound as shown in Formula I*100%. The establishment rate of diarrhea model in the chemotherapeutic agent group was 50%-70%, that is, about 5-7 of 10 mice developed diarrhea during the experiment, and there were cases of individual mice death or not developing diarrhea.)

CN1CCN(c2ccc(Nc3ncc4cc5n(c4n3)C3(CCCCC3)CNC5=O)nc2)CC1 [Compound I, Trilaciclib]
Relative remission rate (Ex 19, 5-Fu 125 mg/kg intraperitoneal single, compound 100 mg/kg intravenous single 13 h before, cycle 10 days): 60%
Relative remission rate (Ex 20, 5-Fu 125 mg/kg intraperitoneal single, compound 100 mg/kg intravenous single 14 h before, cycle 10 days): 60%
Relative remission rate (Ex 21, 5-Fu 125 mg/kg intraperitoneal single, compound 100 mg/kg intravenous single 16 h before, cycle 10 days): 60%
Relative remission rate (Ex 22, 5-Fu 125 mg/kg intraperitoneal single, compound 100 mg/kg intravenous single 18 h before, cycle 10 days): 50%
Relative remission rate (Ex 23, 5-Fu 125 mg/kg intraperitoneal single, compound 100 mg/kg intravenous single 20 h before, cycle 10 days): 50%
Relative remission rate (Ex 24, 5-Fu 125 mg/kg intraperitoneal single, compound 100 mg/kg intravenous single 22 h before, cycle 10 days): 40%
Relative remission rate (Ex 25, 5-Fu 125 mg/kg intraperitoneal single, compound 100 mg/kg intravenous single 24 h before, cycle 10 days): 40%
Relative remission rate (Ex 26, 5-Fu 125 mg/kg intraperitoneal single, compound 100 mg/kg intravenous single 48 h before, cycle 10 days): 0%
Relative remission rate (Ex 34, 5-Fu 175 mg/kg intravenous single, compound 100 mg/kg intraperitoneal single 0.5 h before, cycle 10 days): 40%
Relative remission rate (Ex 35, 5-Fu 175 mg/kg intravenous single, compound 100 mg/kg intraperitoneal single 1 h before, cycle 10 days): 40%
Relative remission rate (Ex 36, 5-Fu 175 mg/kg intravenous single, compound 100 mg/kg intraperitoneal single 2 h before, cycle 10 days): 30%
Relative remission rate (Ex 37, 5-Fu 175 mg/kg intravenous single, compound 100 mg/kg intraperitoneal single 4 h before, cycle 10 days): 30%
Relative remission rate (Ex 38, 5-Fu 175 mg/kg intravenous single, compound 100 mg/kg intraperitoneal single 6 h before, cycle 10 days): 50%
Relative remission rate (Ex 39, 5-Fu 175 mg/kg intravenous single, compound 100 mg/kg intraperitoneal single 8 h before, cycle 10 days): 60%
Relative remission rate (Ex 40, 5-Fu 175 mg/kg intravenous single, compound 100 mg/kg intraperitoneal single 10 h before, cycle 10 days): 50%
Relative remission rate (Ex 41, 5-Fu 175 mg/kg intravenous single, compound 100 mg/kg intraperitoneal single 12 h before, cycle 10 days): 40%
Relative remission rate (Ex 42, 5-Fu 175 mg/kg intravenous single, compound 100 mg/kg intraperitoneal single 14 h before, cycle 10 days): 30%
Relative remission rate (Ex 43, 5-Fu 175 mg/kg intravenous single, compound 100 mg/kg intraperitoneal single 16 h before, cycle 10 days): 40%
Relative remission rate (Ex 44, 5-Fu 175 mg/kg intravenous single, compound 100 mg/kg intraperitoneal single 18 h before, cycle 10 days): 50%
Relative remission rate (Ex 45, 5-Fu 175 mg/kg intravenous single, compound 100 mg/kg intraperitoneal single 20 h before, cycle 10 days): 50%
Relative remission rate (Ex 46, 5-Fu 175 mg/kg intravenous single, compound 100 mg/kg intraperitoneal single 24 h before, cycle 10 days): 40%
Relative remission rate (Ex 47, 5-Fu 175 mg/kg intravenous single, compound 100 mg/kg intraperitoneal single 48 h before, cycle 10 days): 0%
Relative remission rate (Ex 52, 5-Fu 175 mg/kg intravenous single, compound 100 mg/kg oral single 0.5 h before, cycle 10 days): 40%
Relative remission rate (Ex 53, 5-Fu 175 mg/kg intravenous single, compound 100 mg/kg oral single 4 h before, cycle 10 days): 80%
Relative remission rate (Ex 54, 5-Fu 175 mg/kg intravenous single, compound 100 mg/kg oral single 12 h before, cycle 10 days): 50%
Relative remission rate (Ex 55, 5-Fu 175 mg/kg intravenous single, compound 100 mg/kg oral single 24 h before, cycle 10 days): 30%
Relative remission rate (Ex 56, 5-Fu 250 mg/kg oral single, compound 150 mg/kg intramuscular single 0.5 h before, cycle 8 days): 60%
Relative remission rate (Ex 57, 5-Fu 125 mg/kg intramuscular single, compound 100 mg/kg intraperitoneal single 8 h before, cycle 10 days): 40%
Relative remission rate (Ex 58, Oxaliplatin 20 mg/kg intraperitoneal single, compound 100 mg/kg intraperitoneal single 0.5 h before, cycle 8 days): 40%
Relative remission rate (Ex 59, Oxaliplatin 20 mg/kg intraperitoneal single, compound 100 mg/kg intraperitoneal single 1 h before, cycle 8 days): 30%
Relative remission rate (Ex 60, Oxaliplatin 20 mg/kg intraperitoneal single, compound 100 mg/kg intraperitoneal single 2 h before, cycle 8 days): 40%
Relative remission rate (Ex 61, Oxaliplatin 20 mg/kg intraperitoneal single, compound 100 mg/kg intraperitoneal single 3 h before, cycle 8 days): 50%
Relative remission rate (Ex 62, Oxaliplatin 20 mg/kg intraperitoneal single, compound 100 mg/kg intraperitoneal single 4 h before, cycle 8 days): 50%
Relative remission rate (Ex 63, Oxaliplatin 20 mg/kg intraperitoneal single, compound 100 mg/kg intraperitoneal single 5 h before, cycle 8 days): 30%
Relative remission rate (Ex 64, Oxaliplatin 20 mg/kg intraperitoneal single, compound 100 mg/kg intraperitoneal single 6 h before, cycle 8 days): 40%
Relative remission rate (Ex 65, Oxaliplatin 20 mg/kg intraperitoneal single, compound 100 mg/kg intraperitoneal single 7 h before, cycle 8 days): 60%
Relative remission rate (Ex 66, Oxaliplatin 20 mg/kg intraperitoneal single, compound 100 mg/kg intraperitoneal single 8 h before, cycle 8 days): 60%
Relative remission rate (Ex 67, Oxaliplatin 20 mg/kg intraperitoneal single, compound 100 mg/kg intraperitoneal single 9 h before, cycle 8 days): 50%
Relative remission rate (Ex 68, Oxaliplatin 20 mg/kg intraperitoneal single, compound 100 mg/kg intraperitoneal single 10 h before, cycle 8 days): 70%
Relative remission rate (Ex 69, Oxaliplatin 20 mg/kg intraperitoneal single, compound 100 mg/kg intraperitoneal single 11 h before, cycle 8 days): 70%
Relative remission rate (Ex 70, Oxaliplatin 20 mg/kg intraperitoneal single, compound 100 mg/kg intraperitoneal single 12 h before, cycle 8 days): 50%
Relative remission rate (Ex 71, Oxaliplatin 20 mg/kg intraperitoneal single, compound 100 mg/kg intraperitoneal single 14 h before, cycle 8 days): 60%
Relative remission rate (Ex 72, Oxaliplatin 20 mg/kg intraperitoneal single, compound 100 mg/kg intraperitoneal single 16 h before, cycle 8 days): 50%
Relative remission rate (Ex 73, Oxaliplatin 20 mg/kg intraperitoneal single, compound 100 mg/kg intraperitoneal single 18 h before, cycle 8 days): 50%
Relative remission rate (Ex 74, Oxaliplatin 20 mg/kg intraperitoneal single, compound 100 mg/kg intraperitoneal single 20 h before, cycle 8 days): 70%
Relative remission rate (Ex 75, Oxaliplatin 20 mg/kg intraperitoneal single, compound 100 mg/kg intraperitoneal single 22 h before, cycle 8 days): 40%
Relative remission rate (Ex 76, Oxaliplatin 20 mg/kg intraperitoneal single, compound 100 mg/kg intraperitoneal single 24 h before, cycle 8 days): 40%
Relative remission rate (Ex 77, Oxaliplatin 20 mg/kg intraperitoneal single, compound 100 mg/kg intraperitoneal single 48 h before, cycle 8 days): 0%
Relative remission rate (Ex 81, Oxaliplatin 17.5 mg/kg intravenous single, compound 150 mg/kg intravenous single 0.5 h before, cycle 8 days): 20%
Relative remission rate (Ex 82, Oxaliplatin 17.5 mg/kg intravenous single, compound 150 mg/kg intravenous single 4 h before, cycle 8 days): 30%
Relative remission rate (Ex 83, Oxaliplatin 17.5 mg/kg intravenous single, compound 150 mg/kg intravenous single 8 h before, cycle 8 days): 30%
Relative remission rate (Ex 84, Oxaliplatin 17.5 mg/kg intravenous single, compound 150 mg/kg intravenous single 12 h before, cycle 8 days): 40%
Relative remission rate (Ex 85, Oxaliplatin 17.5 mg/kg intravenous single, compound 150 mg/kg intravenous single 16 h before, cycle 8 days): 40%
